The results in this text go back to the supplement of paper PMC8166895.

Where a name gives a salt, the structure may show the parent alone. The list shows a part of the results. Most entries show no effect beyond the scatter of the controls.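 A single-replicate pilot screen of approved drugs and clinical or known-target compounds measured melting temperature via differential scanning fluorimetry. Top stabilizing hits raised the melting point by 2 °C or more; negative shifts indicate destabilization.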

This experiment concerns SARS-CoV-2 main protease (Mpro, nsp5). Kind of experiment: thermal shift ΔTm of Mpro relative to plate average Tm; higher = stronger thermal stabilization of Mpro (binding). The note with it: 10 µM; protein concentration 1 µM.
As to `CCN1CCN(C(=O)N[C@@H](C(=O)N[C@@H]2C(=O)N3C(C(=O)O)=C(CSc4nnnn4C)CS[C@H]23)c2ccc(O)cc2)C(=O)C1=O` [Cefoperazone], the “thermal shift ΔTm of Mpro” value was -0.0744 °C. As for `CCN1CCN(C(=O)N[C@@H](C(=O)N[C@@H]2C(=O)N3C(C(=O)O)=C(CSc4nnnn4C)CS[C@H]23)c2ccc(O)cc2)C(=O)C1=O` [Cefoperazone sodium], the figure is 0.0734 °C; as for `CC(C)(Cc1ccc2ccccc2c1)NC[C@@H](O)COc1cccc(Cl)c1C#N`, -0.0198 °C; as for `CN(C)CCOc1ccc(/C(=C(/CCCl)c2ccccc2)c2ccccc2)cc1` [Toremifene Citrate], -0.0213 °C. As for `CN(C)CCOc1ccc(/C(=C(/CCCl)c2ccccc2)c2ccccc2)cc1` [Toremifene], the figure is 0.0896 °C; as for `Cc1cc(/N=N/c2ccc(S(=O)(=O)Nc3ccccn3)cc2)c(N)cc1O`, 0.36 °C. Consider `Cc1cc(Nc2ncnc3ccc(-c4ccc(CNCCS(C)(=O)=O)o4)cc23)ccc1Oc1ccn2ncnc2c1`, for which the “thermal shift ΔTm of Mpro” value was found to be 0.192 °C. As for `CC(C(=O)O)c1ccc(N2Cc3ccccc3C2=O)cc1` (stereo not drawn) [Indoprofen], the figure is 0.0792 °C; as for `COc1cc(O)c(CC=C(C)C)c(O)c1C(=O)/C=C/c1ccc(O)cc1` [Xanthohumol], 0.718 °C; as for `Cc1ncc(NC(=O)c2ccc(CN3CCN(C)CC3)c(C(F)(F)F)c2)cc1Nc1nccc(-c2cccnc2)n1` [Flumatinib], -0.00874 °C. In the case of `Cc1cc(C)cc(C(=O)NOCCCCCC(=O)NO)c1`, the “thermal shift ΔTm of Mpro” value was 0.181 °C.

`C=C1CCC2C(/C=C(\C)C(=O)C3(OC(C)=O)CC(C)C(OC(=O)c4ccccc4)C3C1OC(C)=O)C2(C)C` (stereo not drawn) [5,15-Diacetyl-3-benzoyllathyrol]: the “thermal shift ΔTm of Mpro” value is 0.0308 °C. As for `O=c1c(-c2ccc(O)cc2)coc2c([C@@H]3O[C@H](CO)[C@@H](O)[C@H](O)[C@H]3O)c(O)ccc12` [Puerarin], the figure is -0.059 °C. As for `COCCOC(=O)C1=C(C)NC(C)=C(C(=O)OC/C=C/c2ccccc2)C1c1cccc([N+](=O)[O-])c1` (stereo not drawn) [Cilnidipine], the “thermal shift ΔTm of Mpro” value stood at 0.124 °C. As for `CCOc1nc2cccc(C(=O)O)c2n1Cc1ccc(-c2ccccc2-c2noc(=O)[nH]2)cc1` [Azilsartan], the figure is 0.167 °C; as for `Cc1cc([C@@H](C)Nc2ccccc2C(=O)O)c2nc(N3CCOCC3)cc(=O)n2c1`, 0.255 °C; as for `COc1cc(O)c(C(=O)Nc2nc(C(=O)NCCN(C(C)C)C(C)C)cs2)cc1OC` [Acotiamide hydrochloride], -0.0792 °C.

For the compound `CC(C)(Oc1ccc(C(=O)c2ccc(Cl)cc2)cc1)C(=O)O` [Fenofibric acid], the “thermal shift ΔTm of Mpro” value was determined as 0.0102 °C. As for `COc1cc2nccc(Oc3ccc(NC(=O)C4(C(=O)Nc5ccc(F)cc5)CC4)cc3)c2cc1OC`, the “thermal shift ΔTm of Mpro” value was -0.142 °C. Take `COc1cc2nccc(Oc3ccc(NC(=O)C4(C(=O)Nc5ccc(F)cc5)CC4)cc3)c2cc1OC` [Cabozantinib malate (XL184)]: the “thermal shift ΔTm of Mpro” value was 0.143 °C. In the case of `O=C(O)/C=C/c1ccc(Cn2ccnc2)cc1` [Ozagrel], the “thermal shift ΔTm of Mpro” value is -0.000145 °C.

Take `O=C(O)/C=C/c1ccc(Cn2ccnc2)cc1` [Ozagrel HCl]: the “thermal shift ΔTm of Mpro” value turned out to be 0.114 °C.

For `O=C1CCc2ccccc2C1` [Beta-Tetralone], the “thermal shift ΔTm of Mpro” value was -0.172 °C. As for `CCCc1nc(C)c2c(=O)nc(-c3cc(S(=O)(=O)N4CCN(CC)CC4)ccc3OCC)[nH]n12` [Vardenafil HCl Trihydrate], the “thermal shift ΔTm of Mpro” value was found to be 0.0757 °C.

Consider `CCCc1nc(C)c2c(=O)nc(-c3cc(S(=O)(=O)N4CCN(CC)CC4)ccc3OCC)[nH]n12` [Vardenafil hydrochloride trihydrate], for which the “thermal shift ΔTm of Mpro” value is -0.0401 °C.

As to `CNC(=O)c1cc(COc2nnc(Nc3ccc(Cl)cc3)c3ccoc23)ccn1` [Telatinib], the “thermal shift ΔTm of Mpro” value is -0.0164 °C. As for `N[C@@H]1CC[C@@H](c2ccc(Cl)c(Cl)c2)c2ccccc21` [Dasotraline hydrochloride], the figure is -0.0944 °C. As to `Cc1ccc(CN(Cc2ccc(-c3ccccc3S(=O)(=O)NC#N)cc2)C(=O)c2ccccc2Cl)cc1`, the “thermal shift ΔTm of Mpro” value is -0.0829 °C. Turning to `N#Cc1cc(-c2n[nH]c(-c3ccncc3)n2)ccn1` [Topiroxostat], the “thermal shift ΔTm of Mpro” value is 0.159 °C. Consider `C[N+]1(C)[C@@H]2C[C@@H](OC(=O)[C@H](CO)c3ccccc3)C[C@H]1[C@@H]1O[C@@H]12` [Methscopolamine], for which the “thermal shift ΔTm of Mpro” value is 0.159 °C. For the compound `C[C@]12CC[C@H](O)C[C@@H]1CC[C@@H]1[C@@H]2CC[C@]2(C)C(=O)CC[C@@H]12` [Epiandrosterone], the “thermal shift ΔTm of Mpro” value was -0.193 °C. With `COc1ccc(S(=O)(=O)N(C(C)=O)c2ccccc2/C=C/c2cc[n+]([O-])cc2)cc1`, the “thermal shift ΔTm of Mpro” value worked out at 0.528 °C.

On to `COc1ccc2c(c1)C(c1ccc(F)cc1)=C(CN1CCCC1)CO2`, for which the “thermal shift ΔTm of Mpro” value is -0.0905 °C. As to `O=C1CC2(CCCC2)CC(=O)N1CCCCN1CCN(c2ncccn2)CC1` [Buspirone HCl], the “thermal shift ΔTm of Mpro” value is 0.0475 °C. As for `CC[C@H]1OC(=O)[C@H](C)[C@@H](O[C@H]2C[C@@](C)(OC)[C@@H](O)[C@H](C)O2)[C@H](C)[C@@H](O[C@@H]2O[C@H](C)C[C@H](N(C)C)[C@H]2O)[C@](C)(O)C[C@@H](C)[C@@H]2N[C@@H](COCCOC)O[C@H]([C@H]2C)[C@]1(C)O` [Dirithromycin], the “thermal shift ΔTm of Mpro” value worked out at 0.0087 °C.

For `CCc1c(C(=O)C(N)=O)c2c(OCC(N)=O)cccc2n1Cc1ccccc1` [hnps-PLA Inhibitor], the “thermal shift ΔTm of Mpro” value is -0.0357 °C.

Consider `Cc1cc(C)c(/C=C2\C(=O)Nc3ccccc32)[nH]1` [Semaxanib (SU5416)], for which the “thermal shift ΔTm of Mpro” value is -0.226 °C. As for `Cc1cc(C)c(/C=C2\C(=O)Nc3ccccc32)[nH]1` [Semaxinib], the figure is -0.0618 °C.
